Source: article PMC3097235
Where a chain is given by its changes, count along the chain named. These are yes or no findings as the source states them, for the method shown. In cells and extracts the contact can be indirect. Some binding calls cover weakened binding; strength is not graded here. Sequences can lack the tags named with a protein.

Experiments:
Assay in all cases: co-IP; HEK 293 cells co-transfected with tyrosinase constructs and EDEM1, pulse-chased for 20 min; lysates precipitated with T311 anti-tyrosinase antibodies; autoradiography
[1] = target: T1, human tyrosinase N-glycosylation mutant Δ1 (N86Q) (human) (UniProt P14679)
T1 sequence: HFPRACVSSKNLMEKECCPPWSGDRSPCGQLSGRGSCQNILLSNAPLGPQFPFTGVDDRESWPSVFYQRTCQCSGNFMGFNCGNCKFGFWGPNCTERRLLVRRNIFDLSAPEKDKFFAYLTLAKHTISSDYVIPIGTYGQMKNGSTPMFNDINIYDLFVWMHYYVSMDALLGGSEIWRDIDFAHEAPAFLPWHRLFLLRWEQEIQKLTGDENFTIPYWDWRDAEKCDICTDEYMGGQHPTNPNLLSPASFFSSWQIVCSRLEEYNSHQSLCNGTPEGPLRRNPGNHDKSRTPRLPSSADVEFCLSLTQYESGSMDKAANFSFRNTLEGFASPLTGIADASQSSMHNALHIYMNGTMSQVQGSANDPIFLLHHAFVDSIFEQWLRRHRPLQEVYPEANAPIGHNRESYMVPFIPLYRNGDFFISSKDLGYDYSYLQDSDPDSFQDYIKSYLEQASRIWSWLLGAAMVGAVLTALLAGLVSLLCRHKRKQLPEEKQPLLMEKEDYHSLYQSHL

[2] = target: T2, human tyrosinase N-glycosylation mutant Δ6 (N337Q) (human) (UniProt P14679)
T2 sequence: T1 sequence with Q68N, N319Q

[3] = target: T3, human tyrosinase N-glycosylation mutant Δ7 (N371Q) (human) (UniProt P14679)
T3 sequence: T1 sequence with Q68N, N353Q

Measured: binding

B1: mouse EDEM fused to an HA-tag (protein, UniProt Q925U4 1-652)
chain: MQWRALVLGLVLLRLGLHAVLWLVFGLGPSMGFYQRFPLSFGFQRLRDPDGSGPVGPPGGPAWLHRPRRGTEGRLETPPEPGPTPGPGVCGPAHWGYALGGGGCGPDEYERRYSGAFPPQLRAQMRDLARGMFVFGYDNYMAHAFPQDELNPIYCRGRGPDRGDPSNLNINDVLGNYSLTLVDALDTLAIMGNSSEFQKAVKLVINTVSFDKDSTVQVFEATIRVLGSLLSAHRIITDSKQPFGDMTIEDYDNELLYMAHDLAVRLLPAFENTKTGIPYPRVNLKTGVPPDSNNETCTAGAGSLLVEFGILSRLLGDSTFEWVARRAVKALWNLRSNDTGLLGNVVNIQTGHWVGKQSGLGAGLDSFYEYLLKSYILFGEKEDLEMFNAAYQSIQSYLRRGREACNEGEGDPPLYVNVNMFSGQLMNTWIDSLQAFFPGLQVLIGDVEDAICLHAFYYAIWKRYGALPERYNWQLQAPDVLFYPLRPELVESTYLLYQATKNPFYLHVGMDILQSLEKYTKVKCGYATLHHVIDKSKEDRMESFFLSETCKYLYLLFDEENPVHKSGTRYMFTTEGHIISVDKRLRELPWKEFFSEDGERDQEEKFVHRPKSQELRVINSSSNCNRVPDERRYSLPLKSIYMRQIDQMVGLI
binds: [1] | [2] | [3]
